# Measured data: PubChem BioAssay AID1159618 (Peter MacCallum Cancer Centre, 2016)
# Aim: 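Contrast migration regulators of blood versus lymphatic endothelial cells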 (follow-up of hits)
# System: human HMBEC blood microvascular and HDLEC dermal lymphatic endothelial cells
# Reagent: siRNA pool against human genes, 40 nM
# Measurement: 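Automated imaging of scratched monolayers; area filled by migrating cells relative to the mean of mock-transfected wells, averaged over two replicates; nuclei also counted per well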
# Scale: migration vs mock, HMBEC and migration vs mock, HDLEC: higher = more migration into the scratch; nuclei count, HMBEC and nuclei count, HDLEC: higher = more cells
# Hit rule: 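Called impaired when migration drops below 0.65 of mock in HMBEC, HDLEC or both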
# Calls: active = migration impaired; inactive = no change
# The deposit covers 153 reagents; this is a random part of them. In the full data, 111 (73%) were called active. 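Migration not corrected for cell number; some knock-downs also lowered nuclei counts, so reduced closure may partly reflect fewer cells.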 Reagent sequences are not shown. Not stated in the record: the time to read-out.
target gene,cell type with impaired migration,"migration vs mock, HMBEC","migration vs mock, HDLEC","nuclei count, HMBEC","nuclei count, HDLEC",outcome
CSNK1G3,no change in either cell type,0.7,1.2,3816,6134,inactive
FBXW11,impaired in both blood and lymphatic cells,0.628,0.577,4245,5980,active
FLT3,no change in either cell type,0.804,0.948,3878,5695,inactive
FLCN,impaired in both blood and lymphatic cells,0.374,0.65,2805,5498,active
MESP2,impaired in both blood and lymphatic cells,0.536,0.585,3754,4876,active
ITPKA,impaired only in lymphatic endothelial cells,0.738,0.493,4764,6257,active
RTL8C,no change in either cell type,0.776,0.87,3882,6196,inactive
SLC22A25,impaired in both blood and lymphatic cells,0.638,0.586,3292,5418,active
TMEM132E,impaired in both blood and lymphatic cells,0.468,0.148,3376,5056,active
TTLL3,impaired in both blood and lymphatic cells,0.238,0.221,3550,5236,active
SLC31A2,impaired only in lymphatic endothelial cells,0.7,0.266,3373,4546,active
RELT,no change in either cell type,0.993,0.807,4413,6019,inactive
ABCC3,impaired only in lymphatic endothelial cells,0.729,0.508,3837,5824,active
NUDT2,no change in either cell type,0.766,0.925,3828,5934,inactive
SMURF2,impaired in both blood and lymphatic cells,0.548,0.529,3080,5458,active
LPL,impaired only in lymphatic endothelial cells,0.878,0.595,4228,6017,active
RET,no change in either cell type,0.937,0.787,4315,5780,inactive
ABCA2,impaired in both blood and lymphatic cells,0.556,0.611,3752,5257,active
STRC,impaired only in blood endothelial cells,0.583,0.718,3752,5110,active
SPICE1,impaired in both blood and lymphatic cells,0.296,0.625,3034,4928,active
STK36,impaired only in blood endothelial cells,0.604,0.898,3677,5676,active
CALM2,no change in either cell type,0.736,0.95,3762,6069,inactive
SCGB1C1,impaired in both blood and lymphatic cells,0.632,0.342,3653,6060,active
PTH2,impaired in both blood and lymphatic cells,0.409,0.368,3900,5415,active
AOC3,no change in either cell type,0.815,0.754,4777,6587,inactive
SF3B1,impaired in both blood and lymphatic cells,0.302,0.278,3710,5108,active
GBA1,no change in either cell type,0.763,0.721,4616,6446,inactive
CYP1A1,impaired in both blood and lymphatic cells,0.595,0.37,3656,6147,active
RAD21,impaired only in lymphatic endothelial cells,0.795,0.582,3473,5823,active
NXF1,impaired in both blood and lymphatic cells,0.542,0.589,3974,5273,active
PRR21,impaired only in lymphatic endothelial cells,0.856,0.613,4647,6470,active
ISL2,no change in either cell type,0.798,0.99,2990,5492,inactive
TMEM121B,impaired in both blood and lymphatic cells,0.472,0.53,3193,4652,active
CMTM8,impaired only in blood endothelial cells,0.508,0.778,4087,6969,active

Individual results from the list:
ABCC3, nuclei count, HMBEC: 3837
Under “nuclei count, HMBEC”, SPICE1 reads 3034
